Experimental findings from PMC4491822 are described below.

Amino acid sequences for entries named in this document (tags omitted).
UniProt Q8VDD5: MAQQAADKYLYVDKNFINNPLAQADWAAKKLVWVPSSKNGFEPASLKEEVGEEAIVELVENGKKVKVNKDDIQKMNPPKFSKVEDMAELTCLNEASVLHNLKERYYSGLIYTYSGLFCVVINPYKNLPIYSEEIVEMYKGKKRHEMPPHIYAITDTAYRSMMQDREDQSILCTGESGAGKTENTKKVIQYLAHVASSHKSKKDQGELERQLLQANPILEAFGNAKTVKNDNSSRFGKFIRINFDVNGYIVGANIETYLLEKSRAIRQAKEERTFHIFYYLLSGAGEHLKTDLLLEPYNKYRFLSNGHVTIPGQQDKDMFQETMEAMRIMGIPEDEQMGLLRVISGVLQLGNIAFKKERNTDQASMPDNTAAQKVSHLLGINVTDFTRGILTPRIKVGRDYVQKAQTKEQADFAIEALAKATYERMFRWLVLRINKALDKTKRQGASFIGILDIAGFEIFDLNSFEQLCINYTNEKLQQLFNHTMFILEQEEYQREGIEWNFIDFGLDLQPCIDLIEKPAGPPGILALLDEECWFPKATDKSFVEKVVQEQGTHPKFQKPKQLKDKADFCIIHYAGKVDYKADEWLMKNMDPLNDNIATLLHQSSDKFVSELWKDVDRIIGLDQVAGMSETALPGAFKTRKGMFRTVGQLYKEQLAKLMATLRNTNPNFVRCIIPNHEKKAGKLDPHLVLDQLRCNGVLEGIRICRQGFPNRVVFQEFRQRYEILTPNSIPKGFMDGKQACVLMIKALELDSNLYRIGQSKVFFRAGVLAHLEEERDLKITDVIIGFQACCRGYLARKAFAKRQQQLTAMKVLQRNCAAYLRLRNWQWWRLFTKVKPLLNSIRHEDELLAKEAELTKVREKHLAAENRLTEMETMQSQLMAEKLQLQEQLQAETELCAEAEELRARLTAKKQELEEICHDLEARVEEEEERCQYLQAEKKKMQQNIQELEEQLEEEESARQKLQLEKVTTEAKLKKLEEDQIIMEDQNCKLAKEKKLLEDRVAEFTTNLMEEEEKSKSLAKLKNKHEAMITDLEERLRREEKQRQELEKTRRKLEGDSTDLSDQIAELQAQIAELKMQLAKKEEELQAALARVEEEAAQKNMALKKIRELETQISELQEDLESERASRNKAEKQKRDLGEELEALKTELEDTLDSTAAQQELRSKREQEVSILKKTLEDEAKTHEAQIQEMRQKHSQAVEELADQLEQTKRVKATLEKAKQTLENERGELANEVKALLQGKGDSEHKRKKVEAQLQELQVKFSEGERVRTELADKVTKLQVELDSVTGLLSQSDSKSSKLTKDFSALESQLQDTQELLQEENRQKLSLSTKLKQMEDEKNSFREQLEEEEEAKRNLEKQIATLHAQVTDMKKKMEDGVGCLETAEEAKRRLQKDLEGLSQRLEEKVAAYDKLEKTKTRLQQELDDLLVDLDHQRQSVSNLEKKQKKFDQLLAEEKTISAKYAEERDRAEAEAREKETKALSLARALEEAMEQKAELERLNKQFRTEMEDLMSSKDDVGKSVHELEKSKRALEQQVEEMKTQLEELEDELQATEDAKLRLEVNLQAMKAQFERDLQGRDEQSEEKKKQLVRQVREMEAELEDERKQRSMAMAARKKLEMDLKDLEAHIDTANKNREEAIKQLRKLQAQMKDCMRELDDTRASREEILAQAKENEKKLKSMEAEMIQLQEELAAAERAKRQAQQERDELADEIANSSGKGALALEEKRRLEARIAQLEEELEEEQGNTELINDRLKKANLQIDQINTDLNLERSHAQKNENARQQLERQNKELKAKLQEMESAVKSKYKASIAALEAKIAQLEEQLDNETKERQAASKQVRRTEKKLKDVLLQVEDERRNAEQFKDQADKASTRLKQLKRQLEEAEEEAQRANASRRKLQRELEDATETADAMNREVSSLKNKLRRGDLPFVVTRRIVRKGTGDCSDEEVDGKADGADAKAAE

Results are given in words; binding and its absence hold for the method and conditions named. In cells and extracts the contact can be indirect. Some entries that bind do so weakly or less than the wild type.

For this test, the target named is myosin IIA heavy chain-GFP (knock-in) (mouse) (UniProt Q8VDD5). Description: proximity ligation; Duo-Link in situ (Olink) on immature mouse DCs fixed and permeabilised in microchannels; rabbit anti-GFP or anti-γTubulin with rat anti-Ii; signal quantified as mean intensity of the whole cell.

B1: MHC class II-associated invariant chain (Ii), mouse (protein, UniProt P04441-2 1-215)
chain: MDDQRDLISNHEQLPILGNRPREPERCSRGALYTGVSVLVALLLAGQATTAYFLYQQQGRLDKLTITSQNLQLESLRMKLPKSAKPVSQMRMATPLLMRPMSMDNMLLGPVKNVTKYGNMTQDHVMHLLTRSGPLEYPQLKGTFPENLKHLKNSMDGVNWKIFESWMKQWLLFEMSKNSLEEKKPTEAPPKEPLDMEDLSSGLGVTRQELGQVTL
With B1, the binding result is reported as “binds”.
